Our source for the binding values is doi:10.1101/686782.

Results are given in words; binding and its absence hold for the method and conditions named. Binding calls can cover weak binding; strength is not graded here.

The target of this experiment is P. savastanoi FliP (Pseudomonas savastanoi pv. phaseolicola 1448A) (UniProt Q48GF5). Briefly: cryo-EM structure.

B1: P. savastanoi FliR (protein, UniProt Q48GF7 1-258)
chain: MLALTDIQISTWVASFMLPMFRIVALLMTMPVIGTTLVPRRVRLYLAFAITVVVAPALPAMPPVQALDLSGLLLIGEQIIIGAGMGLSLQMFFHIFVIAGQIISTQMGMGFASMVDPTNGVSSAVIGQFFTMLVTLLFLFMNGHLVVLEVLVESFTTMPVGGGLLVNNFWELANGLGWALSSGLRLVLPAITALLIINIAFGVMTRAAPQLNIFSIGFPLTLVLGMVILWMSMGDILNQYQPIASQALQSLRDMVRAR
As to B1, the binding entry was “binds”.
